The nature of data set [1]: Competition experiment: reaction with Boc-Cys-OMe and Boc-Lys-OMe at alkaline pH. The note with it: pH 8, 37° C., 2 h.
Data set [2] is described as follows: general procedure: solution-phase peptide synthesis; HBTU/DIPEA, HBTU/HOBt/DIPEA; HOBt/pyridine for PNP carbonates. The note with it: conjugation step.

As for `C=Cc1ccnc(N)n1` [compound 1, 2-amino-4-vinyl-pyrimidine], in data set [1] (competition with cysteine), the “formation of the lysine conjugate” value was “No evidence of the lysine conjugate 5 was observed”. Moreover, in data set [1] (competition with lysine), the “conversion to the cysteine conjugate” value is “full conversion to the cysteine conjugate 3”.

Take Alloc-Val-Ala-PABC-MMAE: in data set [2], the conjugation yield came to 88%.
